No constants are given. Whether binding was seen depends on the method and setting. Binding seen in cells or lysates may run through a third protein. Some binding calls cover weakened binding; strength is not graded here.
Molecular target: topoisomerase II-alpha (TOP2A) (human (endogenous in MDA-MB-231 and T47D)) (UniProt P11388)
Experiment: co-IP; endogenous proteins in MDA-MB-231 and T47D cells; which of the two was precipitated is not told

Protein sequences, listed by entry. Tags and fused reporters are not part of them. Lines headed by an entry give the natural chain unless they say otherwise; changes in a name come on top.
UniProt P11388: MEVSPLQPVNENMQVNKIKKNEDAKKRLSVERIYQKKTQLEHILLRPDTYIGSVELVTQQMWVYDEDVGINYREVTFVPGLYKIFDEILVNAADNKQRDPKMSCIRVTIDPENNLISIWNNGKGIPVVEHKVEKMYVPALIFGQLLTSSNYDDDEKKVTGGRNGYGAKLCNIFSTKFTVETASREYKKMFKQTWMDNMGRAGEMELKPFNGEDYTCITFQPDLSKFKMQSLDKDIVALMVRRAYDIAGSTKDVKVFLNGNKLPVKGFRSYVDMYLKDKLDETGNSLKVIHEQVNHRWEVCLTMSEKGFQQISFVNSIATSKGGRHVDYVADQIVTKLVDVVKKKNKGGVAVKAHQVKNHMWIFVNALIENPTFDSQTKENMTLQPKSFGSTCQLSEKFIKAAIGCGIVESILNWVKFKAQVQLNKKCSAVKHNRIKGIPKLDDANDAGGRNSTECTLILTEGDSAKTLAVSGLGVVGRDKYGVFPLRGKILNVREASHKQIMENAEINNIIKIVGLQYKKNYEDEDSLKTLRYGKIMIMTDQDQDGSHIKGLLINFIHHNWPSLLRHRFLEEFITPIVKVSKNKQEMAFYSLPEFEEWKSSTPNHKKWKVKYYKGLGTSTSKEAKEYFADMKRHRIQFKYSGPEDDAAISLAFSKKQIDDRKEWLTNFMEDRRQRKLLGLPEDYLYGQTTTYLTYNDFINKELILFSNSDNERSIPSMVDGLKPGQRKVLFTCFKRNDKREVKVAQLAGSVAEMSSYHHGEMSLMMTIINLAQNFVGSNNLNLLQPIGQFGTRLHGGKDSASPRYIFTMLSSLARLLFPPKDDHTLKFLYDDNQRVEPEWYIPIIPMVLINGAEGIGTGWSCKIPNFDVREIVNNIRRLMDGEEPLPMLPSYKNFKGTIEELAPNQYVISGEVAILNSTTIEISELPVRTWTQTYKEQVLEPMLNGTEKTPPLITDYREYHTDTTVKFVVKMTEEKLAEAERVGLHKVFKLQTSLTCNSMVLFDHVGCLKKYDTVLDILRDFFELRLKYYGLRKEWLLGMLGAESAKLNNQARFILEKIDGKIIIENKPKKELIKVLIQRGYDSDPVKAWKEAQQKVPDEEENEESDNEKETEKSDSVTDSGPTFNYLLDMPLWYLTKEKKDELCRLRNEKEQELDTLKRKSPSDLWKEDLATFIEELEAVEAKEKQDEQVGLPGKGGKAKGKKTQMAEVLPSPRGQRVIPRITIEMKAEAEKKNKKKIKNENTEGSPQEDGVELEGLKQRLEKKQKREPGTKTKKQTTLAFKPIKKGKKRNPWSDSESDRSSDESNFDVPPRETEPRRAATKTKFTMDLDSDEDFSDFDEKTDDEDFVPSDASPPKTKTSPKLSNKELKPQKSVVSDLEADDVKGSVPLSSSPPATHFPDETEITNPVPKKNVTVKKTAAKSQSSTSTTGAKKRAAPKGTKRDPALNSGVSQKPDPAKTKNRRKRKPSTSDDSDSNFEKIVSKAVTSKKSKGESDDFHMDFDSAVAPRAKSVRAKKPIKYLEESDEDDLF
UniProt O00762: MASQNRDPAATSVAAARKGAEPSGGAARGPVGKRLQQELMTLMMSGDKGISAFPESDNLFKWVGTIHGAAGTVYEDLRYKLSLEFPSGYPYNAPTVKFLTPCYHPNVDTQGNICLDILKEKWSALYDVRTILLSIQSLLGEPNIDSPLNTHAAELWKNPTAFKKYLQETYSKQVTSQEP

Substance: Ubiquitin-conjugating enzyme 2C (UBE2C) (from UniProt O00762 1-179)
- binding: binds
